# Patent US8741347B2, “Method for forming cyclodextrin polymer and lipophilic compound emulsions, resulting emulsions, and compositions including said emulsions” (Centre National de la Recherche Scientifique—CNRS, priority 2009, dated 2014)
# At least one compound was matched to its structure with a doubt left.
# Experiments:
# [1] = Emulsion formation and stability over time, optical microscopy observation on storage; format: physicochemical; settings: poly-β-cyclodextrin 100 mg/ml
# Experimental: The α-, β- or γ-cyclodextrin monomers are placed in solution in water at a concentration of 17 mg/ml. 10 mg of Parsol® MCX are added to 1 ml of the aqueous solution of α-, β- or γ-cyclodextrin thus prepared. The mixture is then subjected to pulsed sonication for 40 seconds in an ice-cold bath (0° C.). The resulting product is stored at 25° C. with tangential agitation.
# The α-, β- or γ-cyclodextrin dimers/trimers are put into solution in water. 10 mg of Parsol® MCX are added to 1 ml of the aqueous solution of α-, β- or γ-cyclodextrin dimer/trimer thus prepared. The mixture is then subjected to pulsed sonication for 40 seconds in an ice-cold bath (0° C.). The resulting product is stored at 25° C. with tangential agitation.
# The resulting emulsions are conditioned for storage at 25° C., with tangential agitation, at 37° C. or 4° C. for a varying period ranging from a few days up to a few months before use.
# Emulsions (a) to (c) are formed by pulsed sonication for a period of 40 seconds and stored at 25° C.
# [2] = Droplet size by optical microscopy and dynamic light scattering (DLS); format: physicochemical; settings: poly-β-cyclodextrin 100 mg/ml, Parsol MCX concentration 500 mg/ml
smiles,measurement,setting,value
"CCCCC(CC)COC(=O)/C=C/c1ccc(OC)cc1 (stereo not drawn) [Parsol® MCX, ethylhexyl methoxycinnamate]",supernatant oil drop at the emulsion surface,[1]; Parsol MCX 50 mg/ml,no oil drop is visible at the emulsion surface
same,supernatant oil drop at the emulsion surface,[1]; Parsol MCX 250 and 500 mg/ml,presence of a supernatant oil drop is observed from the first day
same,droplet size,[2],up to 12 μm
